Laboratory results published in article doi:10.1101/2025.03.20.644464.
No constants are given. Whether binding was seen depends on the method and setting. Binding seen in cells or lysates may run through a third protein. Some binding calls cover weakened binding; strength is not graded here.

Key:
[1] = target: T1, Lupus La protein (human (endogenous in MDA-MB-231)) (UniProt P05455); assay: co-IP; exosomes immunoisolated from MDA-MB-231 HA-CD63-mEGFP^ECL1 cells with GFP-Trap beads, lysed in IP buffer; 5 ug mouse anti-La antibody or IgG isotype control with Protein A/G agarose beads, overnight, 4°C; immunoblot
T1 sequence: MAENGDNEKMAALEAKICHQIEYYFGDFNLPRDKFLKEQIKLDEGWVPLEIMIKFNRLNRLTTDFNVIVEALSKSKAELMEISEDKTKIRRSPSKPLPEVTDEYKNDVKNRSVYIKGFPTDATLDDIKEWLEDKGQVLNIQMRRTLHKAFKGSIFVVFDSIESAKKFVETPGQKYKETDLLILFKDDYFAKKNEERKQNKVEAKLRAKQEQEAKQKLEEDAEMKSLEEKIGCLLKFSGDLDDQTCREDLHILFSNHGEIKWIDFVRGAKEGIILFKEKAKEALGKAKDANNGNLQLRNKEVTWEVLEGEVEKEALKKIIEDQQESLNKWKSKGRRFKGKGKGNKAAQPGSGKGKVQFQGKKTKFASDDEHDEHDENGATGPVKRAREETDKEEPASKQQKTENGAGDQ

[2] = target: T1, Lupus La protein (human (endogenous in MDA-MB-231)); assay: co-IP; MDA-MB-231 WT cells lysed in IP buffer (20 mM HEPES pH 7.4, 100 mM KCl, 5 mM MgCl2, 1% TX-100); 5 ug mouse anti-La antibody or IgG isotype control with Protein A/G agarose beads, overnight, 4°C; immunoblot

binding [1]: binds | binding [2]: binds
Substance: selective autophagy receptor p62 (from UniProt Q13501 1-440)
